{"sequences": {"note": "Protein sequences, listed by entry. Tags and fused reporters are not part of them. Residues count along the entry.", "UniProt P25788, residues 2-255": "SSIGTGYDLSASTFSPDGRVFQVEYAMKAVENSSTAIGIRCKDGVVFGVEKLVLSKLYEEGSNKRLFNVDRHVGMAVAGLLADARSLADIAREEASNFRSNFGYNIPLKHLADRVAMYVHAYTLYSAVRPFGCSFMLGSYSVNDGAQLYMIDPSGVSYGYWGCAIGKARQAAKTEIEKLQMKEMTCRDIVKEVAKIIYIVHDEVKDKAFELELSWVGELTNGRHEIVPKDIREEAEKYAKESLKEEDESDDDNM"}, "source": "patent US7202212", "about": "(BETH ISRAEL DEACONESS MEDICAL CENTER, dated 2007)", "key": {"[1]": {"molecular_target": "α7 subunit of the 20S proteasome, endogenous in ECV304 cells (human) (UniProt P25788)", "assay": "co-immunoprecipitation from ECV304 transfectants"}, "[2]": {"molecular_target": "α7 subunit of the 20S proteasome, endogenous in ECV304 cells (human) (UniProt P25788)", "assay": "co-immunoprecipitation with anti-PR-39 antibody, Western blot with anti-α7 mAb"}}, "note": "Results are given in words; binding and its absence hold for the method and conditions named. Binding seen in cells or lysates may run through a third protein. Some results given as binding are weak or reduced against the parent protein; the word gives no strength."}
{"binder": "RRRPRPPYLPRPRPPPFFPPRLPPRIPPGFPPRFPPRFP (peptide, not shown: large carriers, Bait of the yeast two-hybrid assay; The 39 residues are amino acids 131 to 169 of the porcine precursor; also called PR-39 construct)", "note": "[porcine PR-39 peptide (4th exon, amino acids 131 to 169) in pAS2-1 vector as yeast two-hybrid bait]", "values": [{"measurement": "binding", "setting": "[1]", "result": "binds"}, {"measurement": "binding", "setting": "[2]", "result": "binds"}]}
